This assay has as its target human CXCR4 (human) (UniProt P61073). The assay can be described thus: phage display selection on hCXCR4 lipoparticles or CXCR4 positive cells.

Chains of the proteins cited; added tags and fusions are not shown. Lines headed by an entry give the natural chain unless they say otherwise; changes in a name come on top.
UniProt P61073: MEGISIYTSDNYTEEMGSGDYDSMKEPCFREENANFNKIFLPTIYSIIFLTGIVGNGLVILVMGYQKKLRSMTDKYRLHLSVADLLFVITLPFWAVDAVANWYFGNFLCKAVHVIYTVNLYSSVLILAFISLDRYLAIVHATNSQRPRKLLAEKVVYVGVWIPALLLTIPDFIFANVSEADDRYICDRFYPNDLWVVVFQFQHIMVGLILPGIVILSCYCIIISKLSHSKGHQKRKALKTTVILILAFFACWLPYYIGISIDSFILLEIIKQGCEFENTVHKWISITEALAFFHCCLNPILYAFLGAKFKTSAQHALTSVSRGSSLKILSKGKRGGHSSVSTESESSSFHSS

Drawing on patent US20180072816A1, this text covers binding for one molecule.

These are yes or no findings as the source states them, for the method shown. Some binding calls cover weakened binding; strength is not graded here.

B1: ADCX-668 (designed binder)
chain: LQVDIVPSQGEISVGESKFFLCQVAGTIWYEQISWFTPNGEKLTPNQQRISVVWNDDSSSTLTIYNANIDDAGIYKCVVWTRPVTSSMHEATVNVKIFQ
Take B1: the binding result is listed as “binds”.
